From paper PMC5017145

Protein sequences, listed by entry. Tags and fused reporters are not part of them.
UniProt P30153: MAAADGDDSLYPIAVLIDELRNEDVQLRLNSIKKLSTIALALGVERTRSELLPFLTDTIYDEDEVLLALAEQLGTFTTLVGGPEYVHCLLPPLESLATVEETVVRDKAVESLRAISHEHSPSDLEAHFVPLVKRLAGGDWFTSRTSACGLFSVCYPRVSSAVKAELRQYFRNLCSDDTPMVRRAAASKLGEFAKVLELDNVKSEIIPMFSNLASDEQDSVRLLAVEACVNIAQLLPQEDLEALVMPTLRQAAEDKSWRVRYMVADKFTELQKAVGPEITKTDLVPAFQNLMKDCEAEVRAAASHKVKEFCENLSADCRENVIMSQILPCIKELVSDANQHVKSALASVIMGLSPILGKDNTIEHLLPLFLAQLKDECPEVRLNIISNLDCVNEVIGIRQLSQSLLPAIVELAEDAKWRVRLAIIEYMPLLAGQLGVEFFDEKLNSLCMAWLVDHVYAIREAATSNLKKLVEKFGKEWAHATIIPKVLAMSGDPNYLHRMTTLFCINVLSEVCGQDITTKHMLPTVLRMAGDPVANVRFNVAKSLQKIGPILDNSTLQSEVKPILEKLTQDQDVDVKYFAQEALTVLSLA
UniProt P62820: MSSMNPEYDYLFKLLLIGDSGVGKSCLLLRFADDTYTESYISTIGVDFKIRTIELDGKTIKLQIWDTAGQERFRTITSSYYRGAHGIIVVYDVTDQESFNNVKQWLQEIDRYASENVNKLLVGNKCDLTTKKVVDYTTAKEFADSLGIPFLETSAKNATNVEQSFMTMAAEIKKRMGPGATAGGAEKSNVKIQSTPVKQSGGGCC
UniProt P61019: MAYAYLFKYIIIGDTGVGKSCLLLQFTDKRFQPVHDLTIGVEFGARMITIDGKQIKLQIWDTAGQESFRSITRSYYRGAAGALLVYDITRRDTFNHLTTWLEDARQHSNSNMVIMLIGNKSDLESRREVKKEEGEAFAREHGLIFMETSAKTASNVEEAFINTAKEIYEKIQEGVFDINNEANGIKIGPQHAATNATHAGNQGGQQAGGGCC

Molecular target: PPP2R1A, SF-TAP tagged (PP2A scaffold subunit) (UniProt P30153)
Assay: affinity purification with mass spectrometry; SF-TAP tagged PP2A subunits transiently expressed in HeLa (SF-TAP alone as control); one step Strep-Tactin-Superflow purification; lysis buffer 150 mM NaCl, 50 mM Tris-HCl, 1% Nonidet P-40, 0.25% sodium deoxycholate; SILAC

binding | Substance
binds | RAB1A, endogenous (from UniProt P62820 1-205)
binds | RAB2A, endogenous (from UniProt P61019 1-212)

These are yes or no findings as the source states them, for the method shown. Binding seen in cells or lysates may run through a third protein. A yes stands for co-enrichment or nearness to the bait. Other partners may have been found.
